# Primary screen of a compound library

The chains behind the UniProt entries cited, without tags or fusion partners. Residues count along the entry.
UniProt Q4DA54, 1-478: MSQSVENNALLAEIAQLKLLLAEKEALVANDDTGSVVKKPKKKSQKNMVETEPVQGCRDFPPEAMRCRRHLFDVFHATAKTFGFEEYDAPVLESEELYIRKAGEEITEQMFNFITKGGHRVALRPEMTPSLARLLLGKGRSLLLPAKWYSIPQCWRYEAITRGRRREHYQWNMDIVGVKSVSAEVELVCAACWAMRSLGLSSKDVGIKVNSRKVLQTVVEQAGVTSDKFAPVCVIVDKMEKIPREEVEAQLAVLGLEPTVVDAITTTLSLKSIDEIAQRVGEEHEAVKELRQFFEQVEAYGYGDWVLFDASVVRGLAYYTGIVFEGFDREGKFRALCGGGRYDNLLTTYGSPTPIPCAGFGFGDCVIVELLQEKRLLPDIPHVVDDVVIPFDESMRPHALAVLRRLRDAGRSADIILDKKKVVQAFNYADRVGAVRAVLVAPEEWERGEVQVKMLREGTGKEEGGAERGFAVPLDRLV
UniProt P9WNZ1, whole entry: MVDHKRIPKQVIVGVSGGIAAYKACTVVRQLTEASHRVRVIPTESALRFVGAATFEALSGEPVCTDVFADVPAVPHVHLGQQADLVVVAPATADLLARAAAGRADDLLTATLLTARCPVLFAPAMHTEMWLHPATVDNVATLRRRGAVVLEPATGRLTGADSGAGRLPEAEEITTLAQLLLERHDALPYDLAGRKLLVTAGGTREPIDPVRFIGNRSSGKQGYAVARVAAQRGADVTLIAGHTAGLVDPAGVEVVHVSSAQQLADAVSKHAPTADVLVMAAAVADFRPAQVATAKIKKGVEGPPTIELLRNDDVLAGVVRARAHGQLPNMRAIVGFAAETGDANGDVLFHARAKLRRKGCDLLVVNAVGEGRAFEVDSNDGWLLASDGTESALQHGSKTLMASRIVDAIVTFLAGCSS
UniProt A4I591, 1-473: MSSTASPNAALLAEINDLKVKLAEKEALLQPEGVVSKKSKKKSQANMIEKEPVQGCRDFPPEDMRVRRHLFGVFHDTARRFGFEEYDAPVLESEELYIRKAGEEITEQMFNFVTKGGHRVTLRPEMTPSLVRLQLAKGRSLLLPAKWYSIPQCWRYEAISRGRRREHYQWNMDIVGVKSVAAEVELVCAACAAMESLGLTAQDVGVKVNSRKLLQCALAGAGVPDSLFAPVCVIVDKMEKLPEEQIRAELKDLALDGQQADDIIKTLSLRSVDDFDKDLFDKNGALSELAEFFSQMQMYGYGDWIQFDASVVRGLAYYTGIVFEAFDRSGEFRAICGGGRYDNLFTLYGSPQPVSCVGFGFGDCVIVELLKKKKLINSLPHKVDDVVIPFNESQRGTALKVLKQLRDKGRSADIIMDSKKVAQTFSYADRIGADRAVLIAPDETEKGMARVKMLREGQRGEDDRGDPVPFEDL

Measurements from “University of Dundee, Small-Polar-MMV Screening Library” (2021), ChEMBL document CHEMBL3988442.

TcHisRS: 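Enzyme assay of histidyl-tRNA synthetase; the read-out is not stated. Target: Histidine-tRNA ligase, Trypanosoma cruzi CL Brener (UniProt Q4DA54). Tested at 30 µM. The record gives no direction; compounds that gave an IC50 in retests scored well above the rest, so higher reads as stronger inhibition. About 69,000 compounds were tested under these conditions; 0.045% (about 31) showed 50% or more at least once.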
Leishmania in macrophages: 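Cell assay of Leishmania donovani living inside macrophages; the read-out is not stated. Concentration: 30 µM. Higher reads as stronger inhibition (inferred: compounds with an IC50 in retests scored well above the rest). About 69,000 compounds were tested under these conditions; 1.5% (about 1,000) showed 50% or more at least once.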
Toxoplasma: 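Assay of Toxoplasma gondii numbers, read through their beta-galactosidase reporter with a colour substrate. Compounds at 10 µM. The record gives no direction; the compounds picked for IC50 retests had high values, so higher reads as fewer parasites. About 67,000 compounds were tested under these conditions; 0.38% (about 260) showed 50% or more at least once.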
CoaBC: 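Coenzyme A biosynthesis protein CoaBC, Mycobacterium tuberculosis (UniProt P9WNZ1). Enzyme assay of CoaBC with a phosphate dye (Biomol Green) read at 650 nm. Compounds at 30 µM. Higher reads as stronger inhibition, judged from the few compounds that gave an IC50. Most strong results did not repeat in a second test. Size under these conditions: about 67,000 compounds, about 40 of them at 50% or above in at least one test.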
LiHisRS: 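Histidine-tRNA ligase, Leishmania infantum (UniProt A4I591). Enzyme assay of histidyl-tRNA synthetase; the read-out is not stated. Concentration: 30 µM. Direction is inferred from retests: higher values go with stronger inhibition. The assay is labelled LdHisRS but filed under L. infantum. Size under these conditions: about 69,000 compounds, about 410 of them at 50% or above in at least one test.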

Values are the deposited “Percent Effect”, in %. The record does not define 0% and 100%; most values in the screen are far below 50% and negative numbers occur (in some assays of this library far below -100). This is an unselected part of the compounds tested. Two or more numbers in one place are separate tests of the same structure; such repeats can differ widely. A dash means the value is not listed here; it may have been measured.

SMILES	TcHisRS	Leishmania in macrophages	Toxoplasma	CoaBC	LiHisRS
COC(=O)C1CCN(c2cncc(-n3nc(C)cc3C)n2)CC1	3.743	18.3	0.1727	-0.207	7.692
Cc1ccc(-c2cnc3n2CCN(C)C32CCN(CC3CC3)CC2)cc1.O=C(O)C(F)(F)F.O=C(O)C(F)(F)F.O=C(O)C(F)(F)F	-	7.622	2.121	-	-
CCc1ccc(CN(CCCn2ccnc2)Cc2ccc(C)s2)o1	4.865	-	-	5	0
O=C1CCCN1CCCC(=O)N1CCCC(Cc2cccnc2)C1 (stereo not drawn)	5.495	5.452 & -0.1171	20.88	1.699	1.449
Brc1cnc(NCc2ccccc2N2CCOCC2)nc1	3.659	4.128	-28.3	0.6329	18.07
[H][C@]12CC[C@]([H])(CN(Cc3cccnc3)C1)N(C(=O)Cc1ccncc1)C2	-	24.39	6.974	-	-
CCc1ccsc1C(=O)N1CCN(C(=O)c2ccc(C)o2)CC1	3.333	56.23	-16.06	3.361	5.983
[H][C@@]12CS(=O)(=O)C[C@]1([H])N(C(=O)c1ccnn1C)CCN2C(=O)C1CCC1	-	28.9	8.66	-	-
CCC(C)(C)NC(=O)c1ccc(NC(=O)NCc2cc(C)no2)cc1	8.621	-8.718	-2.09	6.746	4.464
Cn1cc(-c2nnn3c2COC(CNCc2ccncc2)C3)cn1 (stereo not drawn)	-4	30.45	5.808	9.979	2.655
Cc1occc1C(=O)NCC(=O)N1CCC(COc2ccccc2)CC1	5.882	-0.6587	0.06313	-2.114	15.97
Cc1nc(CN(C)C(=O)Nc2cccc(C)c2C)no1	0.9901	-5.087	-	-3.038	19.57
CC(O)(CCc1ccccc1)CNC(=O)c1ccc(F)cc1 (stereo not drawn)	-2.062	-3.429 & -1.817	25.87	13.74	3.478
CN(C)CCCN(C)C1CCN(c2cccc(-c3cscn3)c2)CC1	13.09	61.93	-3.401	-29.01	8.602
Cn1ccc(C(=O)NC2CCC23CCN(Cc2cnn(C)c2)CC3)c1.O=C(O)C(F)(F)F (stereo not drawn)	-	34.97	-14.36	-	-
CCOc1ncccc1NC(=O)NC1CCN(C(=O)C2CC2)CC1	3.134	15.94	14.32	-5.094	6.838
OCCN1CCC(c2cncc(-c3cccc(Cl)c3)n2)CC1	8.24	15.06	-4.964	6.32	10
[H][C@@]12COC[C@]1(COc1ccc(C#N)cn1)CN(Cc1nccs1)C2	-	10.71	13.46	-	-
CNC(=O)CC1CC2(CCN(c3ncccn3)CC2)c2ccccc21 (stereo not drawn)	8.602	-	-	2.326	14.04
FC(F)CN1CCC(NCc2ccc(-n3cccn3)nc2)CC1	4.969	4.616	11.91	3.924	2.5
Cc1ccc(C(=O)N2C[C@@H]3CN(S(C)(=O)=O)CCO[C@@H]3C2)o1	7.527	-	-	-0.6342	5.263
O=C(Cn1cccn1)Nc1ccc(N2CCOCC2)cc1	8.434	35.48 & 14.78	14.03	-0.2545	23.08
CCn1cc2c(n1)CN(S(=O)(=O)c1cn(C)cn1)CC2COC.O=C(O)C(F)(F)F (stereo not drawn)	-	24.69	-12.19	-	-
[H][C@@]12CCN(C(=O)c3scnc3C)CC[C@@]1([H])N(c1cccnc1)CCO2	-	-37.59 & -4.352	9.134	-	-
O=C(c1cnc2ccc(F)cc2c1NCc1ccccn1)N1CCCC1	9.278	-1.654	15.38	-4.245	9.89
CN(C)S(=O)(=O)N(C)C(c1cccc(F)c1)c1ccccn1 (stereo not drawn)	4.571	24.26	11.62	-1.195	21.15
N#Cc1cnc(N2Cc3cnn(Cc4ccc(F)cc4)c3C2)nc1N	12.29	11.31	-1.489	1.028	6.25
CCOCc1ncn2c1CN(S(=O)(=O)c1cccs1)CCC2	7.843	-11.46	3.887	-1.954	-2.857
Cc1ccc(N2N=C(C(=O)NCC3CC3)S(=O)(=O)c3cccnc32)cc1	7.921	-36.01	-	-0.3645	6.522
CN1CC(=O)N(c2cnn(C)c2)CC12CCN(CC1CC1)C2 (stereo not drawn)	2.632	-	-	3.576	9.677
O=C(Cn1c(=O)oc2ccccc21)N1Cc2cnn(CCO)c2C1	5.202	20.97	-4.743	-9.091	12
Cc1ccc(CNC(C)c2nnc3n2CCCC3)o1 (stereo not drawn)	2.174	16.41	-2.136	8.266	3.03
CCn1ccc(CN(C)C(=O)CSc2nnc(N)s2)n1	-0.6494	54.38	0.4263	2.056	8.065
COc1ccc2c(c1)CC(C1CCOCC1)N(C(=O)c1ccn(C)n1)C2 (stereo not drawn)	4.215	10.26	-9.771	3.349	5.755
CC(C)Cc1noc(CN2CCCN(C(=O)c3ccccc3Cl)CC2)n1	0.9804	7.519	-7.806	-1.707	1.6
Cc1ccccc1CS(=O)(=O)NCCCN1CCCCC1	1.245	35.48	-2.643	-10.27	16.5
CC(C)n1cc(C(=O)NCCN(C)C)c2n[nH]c(=O)c-2c1	7	2.749	10.23	-2.179	13.04
Cc1cnc(C2(C)CCN(Cc3cscn3)CC2)s1	3.802	3.173	15.43	1.607	10.34